# Experimental data as given in paper PMC11559372.
# Results are given in words; binding and its absence hold for the method and conditions named. In cells and extracts the contact can be indirect. Some entries that bind do so weakly or less than the wild type.
# B1: Zinc finger E-box-binding homeobox 1 (protein, UniProt P37275 1-1124)
# chain: MADGPRCKRRKQANPRRNNVTNYNTVVETNSDSDDEDKLHIVEEESVTDAADCEGVPEDDLPTDQTVLPGRSSEREGNAKNCWEDDRKEGQEILGPEAQADEAGCTVKDDECESDAENEQNHDPNVEEFLQQQDTAVIFPEAPEEDQRQGTPEASGHDENGTPDAFSQLLTCPYCDRGYKRFTSLKEHIKYRHEKNEDNFSCSLCSYTFAYRTQLERHMTSHKSGRDQRHVTQSGCNRKFKCTECGKAFKYKHHLKEHLRIHSGEKPYECPNCKKRFSHSGSYSSHISSKKCISLIPVNGRPRTGLKTSQCSSPSLSASPGSPTRPQIRQKIENKPLQEQLSVNQIKTEPVDYEFKPIVVASGINCSTPLQNGVFTGGGPLQATSSPQGMVQAVVLPTVGLVSPISINLSDIQNVLKVAVDGNVIRQVLENNQANLASKEQETINASPIQQGGHSVISAISLPLVDQDGTTKIIINYSLEQPSQLQVVPQNLKKENPVATNSCKSEKLPEDLTVKSEKDKSFEGGVNDSTCLLCDDCPGDINALPELKHYDLKQPTQPPPLPAAEAEKPESSVSSATGDGNLSPSQPPLKNLLSLLKAYYALNAQPSAEELSKIADSVNLPLDVVKKWFEKMQAGQISVQSSEPSSPEPGKVNIPAKNNDQPQSANANEPQDSTVNLQSPLKMTNSPVLPVGSTTNGSRSSTPSPSPLNLSSSRNTQGYLYTAEGAQEEPQVEPLDLSLPKQQGELLERSTITSVYQNSVYSVQEEPLNLSCAKKEPQKDSCVTDSEPVVNVIPPSANPINIAIPTVTAQLPTIVAIADQNSVPCLRALAANKQTILIPQVAYTYSTTVSPAVQEPPLKVIQPNGNQDERQDTSSEGVSNVEDQNDSDSTPPKKKMRKTENGMYACDLCDKIFQKSSSLLRHKYEHTGKRPHECGICKKAFKHKHHLIEHMRLHSGEKPYQCDKCGKRFSHSGSYSQHMNHRYSYCKREAEERDSTEQEEAGPEILSNEHVGARASPSQGDSDERESLTREEDEDSEKEEEEEDKEMEELQEEKECEKPQGDEEEEEEEEEVEEEEVEEAENEGEEAKTEGLMKDDRAESQASSLGQKVGESSEQVSEEKTNEA
# Biological target: T1, USP22 (human (endogenous in OC cells A2780 and SKOV3)) (UniProt Q9UPT9)
# T1 sequence: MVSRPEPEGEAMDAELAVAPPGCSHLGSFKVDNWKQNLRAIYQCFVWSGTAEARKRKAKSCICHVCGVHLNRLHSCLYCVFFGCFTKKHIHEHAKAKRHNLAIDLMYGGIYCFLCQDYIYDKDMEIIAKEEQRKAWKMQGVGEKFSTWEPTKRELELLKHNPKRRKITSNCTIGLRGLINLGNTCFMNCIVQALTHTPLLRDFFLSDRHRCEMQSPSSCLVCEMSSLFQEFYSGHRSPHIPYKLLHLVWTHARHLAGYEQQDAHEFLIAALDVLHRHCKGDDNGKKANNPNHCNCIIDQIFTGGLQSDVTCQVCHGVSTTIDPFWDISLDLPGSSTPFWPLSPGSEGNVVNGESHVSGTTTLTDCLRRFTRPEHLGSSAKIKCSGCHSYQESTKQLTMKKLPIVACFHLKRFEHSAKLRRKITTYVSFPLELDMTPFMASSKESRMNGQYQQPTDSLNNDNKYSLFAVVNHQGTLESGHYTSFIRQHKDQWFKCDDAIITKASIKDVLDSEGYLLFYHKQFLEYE
# Assay: co-IP; cell lysate incubated with anti-USP22 (or control anti-IgG) overnight at 4°C, Protein G magnetic beads, western blot
binder,measurement,value
B1,binding,binds
